Measured values reported in patent US8093393B2, “Cationic ceramides, and analogs thereof, and their use for preventing or treating cancer” (MUSC Foundation for Research Development, priority 2004, dated 2012).

How the values were obtained:
UM-SCC-22A cells = assay: MTT cell survival assay and isobologram studies; type: cell-based, human; settings: 1 μM with various concentrations of GMZ, 48 hr
UM-SCC-22A xenografts = settings: SCID mice, n=6

CCCCCCCCCCCCCCCC[n+]1ccccc1 [cetylpyridinium bromide, Cetylpyridinium bromide (CPB) monohydrate, reference compound]
effect on the growth inhibition by GMZ (UM-SCC-22A cells): did not have any role on the efficacy of GMZ | lethality / toxicity to xenograft-bearing mice (UM-SCC-22A xenografts): lethal to all animals tested
